Measured values from publication PMC8927350.
These are yes or no findings as the source states them, for the method shown. In cells and extracts the contact can be indirect. Some results given as binding are weak or reduced against the parent protein; the word gives no strength. One block for each molecule: values may come before it.

The chains behind the UniProt entries cited, without tags or fusion partners.
UniProt Q99LJ7: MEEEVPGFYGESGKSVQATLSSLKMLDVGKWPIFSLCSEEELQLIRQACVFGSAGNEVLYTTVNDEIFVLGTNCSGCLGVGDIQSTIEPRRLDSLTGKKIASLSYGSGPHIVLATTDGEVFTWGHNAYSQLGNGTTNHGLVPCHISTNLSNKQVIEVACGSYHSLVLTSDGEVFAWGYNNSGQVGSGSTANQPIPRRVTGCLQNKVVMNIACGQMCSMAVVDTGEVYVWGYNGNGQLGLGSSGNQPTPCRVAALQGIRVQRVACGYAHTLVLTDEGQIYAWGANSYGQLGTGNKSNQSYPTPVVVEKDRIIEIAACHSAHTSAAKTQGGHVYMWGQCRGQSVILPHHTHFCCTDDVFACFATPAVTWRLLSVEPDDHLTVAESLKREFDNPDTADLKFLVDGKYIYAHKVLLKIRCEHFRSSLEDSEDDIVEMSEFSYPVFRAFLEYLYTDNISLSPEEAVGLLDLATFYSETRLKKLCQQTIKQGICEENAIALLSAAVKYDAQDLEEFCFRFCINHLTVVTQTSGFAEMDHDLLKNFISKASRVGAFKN

Biological target: T1, CEP128 (UniProt Q8BI22)
T1 sequence: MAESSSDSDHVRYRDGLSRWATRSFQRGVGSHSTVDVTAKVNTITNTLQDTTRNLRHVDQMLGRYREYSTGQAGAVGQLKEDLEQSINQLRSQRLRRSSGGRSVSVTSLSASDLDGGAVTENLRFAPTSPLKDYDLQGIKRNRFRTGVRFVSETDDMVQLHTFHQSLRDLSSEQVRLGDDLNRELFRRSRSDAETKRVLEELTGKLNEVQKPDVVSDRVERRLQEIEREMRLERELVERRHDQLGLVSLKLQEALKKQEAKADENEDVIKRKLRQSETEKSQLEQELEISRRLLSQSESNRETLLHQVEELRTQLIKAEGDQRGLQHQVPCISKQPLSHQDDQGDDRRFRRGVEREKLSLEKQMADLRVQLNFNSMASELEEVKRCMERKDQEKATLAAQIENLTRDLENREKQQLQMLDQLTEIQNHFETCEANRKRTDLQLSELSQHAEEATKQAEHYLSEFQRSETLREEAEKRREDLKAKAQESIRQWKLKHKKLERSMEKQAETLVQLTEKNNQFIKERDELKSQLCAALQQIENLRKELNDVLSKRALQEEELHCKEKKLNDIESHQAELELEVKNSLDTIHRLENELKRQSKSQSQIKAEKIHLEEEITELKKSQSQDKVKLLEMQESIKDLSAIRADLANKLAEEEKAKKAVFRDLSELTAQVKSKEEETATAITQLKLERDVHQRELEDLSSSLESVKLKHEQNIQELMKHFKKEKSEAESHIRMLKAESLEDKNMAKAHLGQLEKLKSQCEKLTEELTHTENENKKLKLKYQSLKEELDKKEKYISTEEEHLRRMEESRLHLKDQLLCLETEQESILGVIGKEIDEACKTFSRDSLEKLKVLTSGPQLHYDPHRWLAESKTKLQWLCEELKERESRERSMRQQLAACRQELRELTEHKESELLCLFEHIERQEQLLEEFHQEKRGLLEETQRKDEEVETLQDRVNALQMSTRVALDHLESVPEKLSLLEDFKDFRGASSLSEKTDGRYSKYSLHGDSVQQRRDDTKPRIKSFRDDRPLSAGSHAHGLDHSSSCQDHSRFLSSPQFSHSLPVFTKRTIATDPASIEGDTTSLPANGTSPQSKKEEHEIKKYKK
Test: co-IP; lysates in RIPA buffer with protease and phosphatase inhibitors; incubated with target antibodies overnight at 4 °C; Protein A/G magnetic beads 1 h at room temperature; washed three times (20 mM HEPES, 15% glycerol, 250 mM KCl, 0.2 mM EDTA, 1% NP-40); immunoblot

B1: Crisp1 (protein, UniProt Q03401 20-244)
chain: QDSSQENRLEKLSTTKMSVQEEIVSKHNQLRRMVSPSGSDLLKMEWNYDAQVNAQQWADKCTFSHSPIELRTTNLRCGENLFMSSYLASWSSAIQGWYNEYKDLTYDVGPKQPDSVVGHYTQVVWNSTFQVACGVAECPKNPLRYYYVCHYCPVGNYQGRLYTPYTAGEPCASCPDHCEDGLCTNSCGHEDKYTNCKYLKKMLSCEHELLKKGCKATCLCEGKIH
- binding: binds

B2: Prss55 (protein, UniProt Q14BX2 17-294)
chain: NVECGVRPLYDSRIQYSRIIEGQEAELGEFPWQVSIQESDHHFCGGSILSEWWILTVAHCFYAQELSPTDLRVRVGTNDLTTSPVELEVTTIIRHKGFKRLNMDNDIALLLLAKPLTFNELTVPICLPLWPAPPSWHECWVAGWGVTNSTDKESMSTDLMKVPMRIIEWEECLQMFPSLTTNMLCASYGNESYDACQGDSGGPLVCTTDPGSRWYQVGIISWGKSCGKKGFPGIYTVLAKYTLWIEKIAQTEGKPLDFRGQSSSNKKKNRQNNQLSKS
- binding: binds

Results, then the molecule that gave them:

- binding: binds
Molecule: Rcbtb2 (from UniProt Q99LJ7 1-551)

- binding: binds
B3: Wbp2nl (protein, UniProt Q9D529 1-359)
chain: MAVNQNHTVDRRWAAIPHGESLLKKCSEVDLSFPQSPPGSNLFSGTKRGALFLTSYRVIFVTSRADNDPMFSFTMPFHLMNNCTVEQPIFGANYIKGTIQAAPDGGWEGSATFKIVFRKGGAIDFAQLMAKAASAAAQGVPLRVASFWMGPLGIYVITGDRNMYAPQAYQVAYGAPPAGYGASPVGYGVPSAGYGAPPAGYGAPPVGYVAPSPGYDVLPPGYGAVRYGSPPPLYVATPMGYGVPPPGYGPPPVRYGSPPPGYEAPTMEYGAQPPRYGTTPMGSGSPPPRYEAPPMGYGTPPSGRESIPPGSRATSVAQEAPPAGSEAGHPMSVAVQNPEFQASFPSTSSSQVHSPRSKM
